Source: PMC7677509
Results are given in words; binding and its absence hold for the method and conditions named. Binding seen in cells or lysates may run through a third protein. These calls come from enrichment with a bait or labelling near it, and not all partners need be listed. Where a sequence is shown, tags or fusion partners need not be part of it.

By UniProt entry, the sequences of proteins in these tests, tags left out. Residues count along the entry.
UniProt P17936, residues 28-291: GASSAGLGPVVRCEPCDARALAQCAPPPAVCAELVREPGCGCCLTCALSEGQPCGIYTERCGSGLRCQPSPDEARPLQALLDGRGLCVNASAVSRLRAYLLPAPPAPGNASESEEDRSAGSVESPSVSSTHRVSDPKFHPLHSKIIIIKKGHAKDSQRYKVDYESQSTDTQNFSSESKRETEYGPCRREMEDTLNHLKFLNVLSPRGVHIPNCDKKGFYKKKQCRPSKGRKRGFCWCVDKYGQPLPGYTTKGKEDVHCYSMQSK

Target: T1, FLAG-tagged cyclin G2 (UniProt Q16589)
T1 sequence: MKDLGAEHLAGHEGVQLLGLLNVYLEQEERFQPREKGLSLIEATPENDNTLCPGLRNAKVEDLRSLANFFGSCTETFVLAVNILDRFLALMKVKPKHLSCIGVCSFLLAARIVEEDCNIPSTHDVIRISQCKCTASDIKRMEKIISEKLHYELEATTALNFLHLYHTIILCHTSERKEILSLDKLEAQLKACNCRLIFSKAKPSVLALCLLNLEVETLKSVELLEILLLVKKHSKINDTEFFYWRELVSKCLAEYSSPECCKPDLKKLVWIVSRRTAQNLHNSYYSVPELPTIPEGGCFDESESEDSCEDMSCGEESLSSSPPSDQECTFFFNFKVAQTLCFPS
Test: affinity purification with mass spectrometry; cells expressing FLAG or FLAG-tagged cyclin G2 lysed in RIPA buffer; anti-FLAG affinity gel; washed in PBS; gel bands stained with Coomassie, digested, mass spectrometry

Q: For “insulin-like growth factor binding protein 3 (from UniProt P17936 28-291)”, which binding is on record?
A: binds
